Source: publication doi:10.1101/2023.04.13.536796
Read-outs that look alike come from different tables or passages of the source. No constants are given. Whether binding was seen depends on the method and setting. Binding seen in cells or lysates may run through a third protein. Some results given as binding are weak or reduced against the parent protein; the word gives no strength.

By UniProt entry, the sequences of proteins in these tests, tags left out. Where a name states a change or a piece, a line headed by the entry shows the natural chain unless it says otherwise. Chains listed by the source or under a name are the forms on record and can include a tag or linker. Residues count along the entry.
SEL1L-FLAG WT (Q9UBV2, residues 22-794): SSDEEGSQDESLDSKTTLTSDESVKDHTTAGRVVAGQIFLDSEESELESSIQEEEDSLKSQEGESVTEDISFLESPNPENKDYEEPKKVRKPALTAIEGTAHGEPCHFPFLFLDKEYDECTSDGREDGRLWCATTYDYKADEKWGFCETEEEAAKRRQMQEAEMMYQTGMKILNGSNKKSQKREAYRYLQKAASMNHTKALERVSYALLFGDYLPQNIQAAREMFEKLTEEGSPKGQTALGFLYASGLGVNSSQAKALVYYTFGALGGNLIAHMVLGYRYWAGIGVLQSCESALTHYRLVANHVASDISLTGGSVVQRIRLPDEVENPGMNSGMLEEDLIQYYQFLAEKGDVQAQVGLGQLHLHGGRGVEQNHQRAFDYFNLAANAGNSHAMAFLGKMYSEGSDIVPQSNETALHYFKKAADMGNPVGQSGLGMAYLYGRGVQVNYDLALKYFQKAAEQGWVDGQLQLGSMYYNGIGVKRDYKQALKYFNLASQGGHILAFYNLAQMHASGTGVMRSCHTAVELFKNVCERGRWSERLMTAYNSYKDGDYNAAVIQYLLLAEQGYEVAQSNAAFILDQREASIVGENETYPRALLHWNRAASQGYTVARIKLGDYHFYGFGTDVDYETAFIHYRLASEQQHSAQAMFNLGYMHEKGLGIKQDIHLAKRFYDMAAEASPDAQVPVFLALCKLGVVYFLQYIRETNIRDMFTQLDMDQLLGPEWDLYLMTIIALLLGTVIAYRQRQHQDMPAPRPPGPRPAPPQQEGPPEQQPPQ
SEL1L S658P-FLAG (Q9UBV2, form named): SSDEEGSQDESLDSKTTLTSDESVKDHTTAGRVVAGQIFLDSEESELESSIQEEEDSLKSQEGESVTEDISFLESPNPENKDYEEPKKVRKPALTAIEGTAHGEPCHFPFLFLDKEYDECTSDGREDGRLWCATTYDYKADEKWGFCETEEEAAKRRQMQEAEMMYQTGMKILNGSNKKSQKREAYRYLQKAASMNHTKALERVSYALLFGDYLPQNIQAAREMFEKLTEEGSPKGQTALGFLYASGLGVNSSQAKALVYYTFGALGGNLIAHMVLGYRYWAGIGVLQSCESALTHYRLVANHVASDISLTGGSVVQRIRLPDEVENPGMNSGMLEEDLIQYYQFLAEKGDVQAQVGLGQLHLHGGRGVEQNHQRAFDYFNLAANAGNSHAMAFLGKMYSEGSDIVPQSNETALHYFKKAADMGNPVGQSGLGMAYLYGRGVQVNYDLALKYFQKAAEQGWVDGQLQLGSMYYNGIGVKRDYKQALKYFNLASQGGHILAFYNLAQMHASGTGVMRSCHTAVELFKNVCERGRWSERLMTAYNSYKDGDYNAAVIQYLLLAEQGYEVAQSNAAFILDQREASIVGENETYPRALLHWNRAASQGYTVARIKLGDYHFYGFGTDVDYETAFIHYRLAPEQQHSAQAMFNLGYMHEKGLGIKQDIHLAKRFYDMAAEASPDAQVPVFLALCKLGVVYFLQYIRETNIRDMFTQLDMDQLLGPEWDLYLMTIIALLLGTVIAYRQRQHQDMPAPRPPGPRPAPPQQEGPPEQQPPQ
SEL1L F668W-FLAG (Q9UBV2, form named): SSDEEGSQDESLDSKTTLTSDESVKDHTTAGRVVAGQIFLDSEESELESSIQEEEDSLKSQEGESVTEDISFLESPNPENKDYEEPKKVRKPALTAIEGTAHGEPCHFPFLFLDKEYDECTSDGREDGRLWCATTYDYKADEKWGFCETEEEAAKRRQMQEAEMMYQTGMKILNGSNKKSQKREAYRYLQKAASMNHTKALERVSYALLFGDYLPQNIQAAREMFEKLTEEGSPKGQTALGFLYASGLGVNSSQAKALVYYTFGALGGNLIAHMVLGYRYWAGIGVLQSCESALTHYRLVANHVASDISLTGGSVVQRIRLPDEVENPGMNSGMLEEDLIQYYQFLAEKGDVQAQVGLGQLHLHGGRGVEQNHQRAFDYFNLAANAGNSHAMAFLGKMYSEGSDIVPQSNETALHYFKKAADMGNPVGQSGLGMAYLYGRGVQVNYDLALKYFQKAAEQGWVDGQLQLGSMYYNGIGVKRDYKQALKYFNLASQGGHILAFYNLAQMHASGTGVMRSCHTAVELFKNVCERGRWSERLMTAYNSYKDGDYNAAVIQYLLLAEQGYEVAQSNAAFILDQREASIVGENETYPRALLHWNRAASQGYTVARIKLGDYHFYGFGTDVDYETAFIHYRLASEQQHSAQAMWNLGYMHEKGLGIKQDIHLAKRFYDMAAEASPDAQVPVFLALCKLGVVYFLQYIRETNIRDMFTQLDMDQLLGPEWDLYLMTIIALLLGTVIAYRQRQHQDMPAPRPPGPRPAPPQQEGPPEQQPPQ
SEL1L F668D-FLAG (Q9UBV2, form named): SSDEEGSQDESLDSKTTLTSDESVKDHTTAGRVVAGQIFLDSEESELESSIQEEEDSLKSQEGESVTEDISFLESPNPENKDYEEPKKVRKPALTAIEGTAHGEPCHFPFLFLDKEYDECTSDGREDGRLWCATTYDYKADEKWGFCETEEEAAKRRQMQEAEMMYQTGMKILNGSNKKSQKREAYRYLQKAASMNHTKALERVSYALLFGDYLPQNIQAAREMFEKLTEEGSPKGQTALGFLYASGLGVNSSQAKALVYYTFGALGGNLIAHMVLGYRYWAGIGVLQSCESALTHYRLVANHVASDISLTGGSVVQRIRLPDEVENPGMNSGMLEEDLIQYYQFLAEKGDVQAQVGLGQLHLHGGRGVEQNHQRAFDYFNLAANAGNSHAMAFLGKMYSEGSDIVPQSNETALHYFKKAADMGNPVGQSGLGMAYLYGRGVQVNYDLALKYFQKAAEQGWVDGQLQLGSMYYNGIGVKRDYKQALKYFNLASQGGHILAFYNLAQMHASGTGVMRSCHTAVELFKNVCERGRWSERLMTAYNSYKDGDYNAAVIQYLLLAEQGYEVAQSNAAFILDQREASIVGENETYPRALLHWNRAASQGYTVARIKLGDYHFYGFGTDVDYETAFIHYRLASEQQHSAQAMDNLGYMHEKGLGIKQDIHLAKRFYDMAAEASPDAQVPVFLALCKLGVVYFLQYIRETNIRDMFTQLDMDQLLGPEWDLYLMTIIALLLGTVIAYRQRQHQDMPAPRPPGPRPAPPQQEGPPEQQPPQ
SEL1L F668S-FLAG (Q9UBV2, form named): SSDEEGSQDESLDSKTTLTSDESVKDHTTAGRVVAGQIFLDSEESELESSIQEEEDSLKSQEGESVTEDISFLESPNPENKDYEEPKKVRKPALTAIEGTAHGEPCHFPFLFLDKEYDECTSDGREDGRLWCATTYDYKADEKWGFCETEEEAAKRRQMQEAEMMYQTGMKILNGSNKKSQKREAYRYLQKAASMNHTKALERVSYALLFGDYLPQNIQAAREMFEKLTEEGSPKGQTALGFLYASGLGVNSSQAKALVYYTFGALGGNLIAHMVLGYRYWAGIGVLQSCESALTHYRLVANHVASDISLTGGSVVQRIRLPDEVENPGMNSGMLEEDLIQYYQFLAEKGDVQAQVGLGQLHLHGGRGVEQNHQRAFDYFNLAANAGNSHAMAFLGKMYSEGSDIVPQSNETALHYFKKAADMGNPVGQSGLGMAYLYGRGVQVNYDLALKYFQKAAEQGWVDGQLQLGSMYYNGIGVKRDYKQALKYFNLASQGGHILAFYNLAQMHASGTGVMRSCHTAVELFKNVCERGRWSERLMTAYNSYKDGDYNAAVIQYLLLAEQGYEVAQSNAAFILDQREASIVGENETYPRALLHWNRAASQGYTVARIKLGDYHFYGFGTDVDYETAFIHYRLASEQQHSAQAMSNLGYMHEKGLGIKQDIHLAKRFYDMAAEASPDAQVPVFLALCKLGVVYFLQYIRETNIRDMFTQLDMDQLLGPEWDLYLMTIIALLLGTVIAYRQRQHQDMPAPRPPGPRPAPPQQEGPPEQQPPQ
SEL1L S658P/F668N-FLAG (Q9UBV2, form named): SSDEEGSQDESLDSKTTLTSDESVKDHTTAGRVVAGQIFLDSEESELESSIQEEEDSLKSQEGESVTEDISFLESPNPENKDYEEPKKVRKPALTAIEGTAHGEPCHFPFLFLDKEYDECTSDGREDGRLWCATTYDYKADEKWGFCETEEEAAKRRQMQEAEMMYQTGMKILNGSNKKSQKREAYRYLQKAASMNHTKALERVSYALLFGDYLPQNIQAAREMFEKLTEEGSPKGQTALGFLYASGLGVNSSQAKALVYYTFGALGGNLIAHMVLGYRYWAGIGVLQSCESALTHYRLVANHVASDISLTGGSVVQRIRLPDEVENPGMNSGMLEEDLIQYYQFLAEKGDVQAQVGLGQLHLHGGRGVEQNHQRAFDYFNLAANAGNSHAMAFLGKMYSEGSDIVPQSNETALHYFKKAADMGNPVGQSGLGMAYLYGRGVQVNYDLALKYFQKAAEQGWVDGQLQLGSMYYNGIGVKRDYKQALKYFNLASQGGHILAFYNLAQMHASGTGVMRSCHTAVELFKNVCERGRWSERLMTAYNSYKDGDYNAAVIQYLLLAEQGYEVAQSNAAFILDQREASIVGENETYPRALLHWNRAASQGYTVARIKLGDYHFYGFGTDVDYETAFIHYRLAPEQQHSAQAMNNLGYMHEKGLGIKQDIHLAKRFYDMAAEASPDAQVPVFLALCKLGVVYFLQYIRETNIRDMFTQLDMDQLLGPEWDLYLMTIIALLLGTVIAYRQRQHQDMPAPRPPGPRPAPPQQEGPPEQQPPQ
SEL1L F668M-FLAG (Q9UBV2, form named): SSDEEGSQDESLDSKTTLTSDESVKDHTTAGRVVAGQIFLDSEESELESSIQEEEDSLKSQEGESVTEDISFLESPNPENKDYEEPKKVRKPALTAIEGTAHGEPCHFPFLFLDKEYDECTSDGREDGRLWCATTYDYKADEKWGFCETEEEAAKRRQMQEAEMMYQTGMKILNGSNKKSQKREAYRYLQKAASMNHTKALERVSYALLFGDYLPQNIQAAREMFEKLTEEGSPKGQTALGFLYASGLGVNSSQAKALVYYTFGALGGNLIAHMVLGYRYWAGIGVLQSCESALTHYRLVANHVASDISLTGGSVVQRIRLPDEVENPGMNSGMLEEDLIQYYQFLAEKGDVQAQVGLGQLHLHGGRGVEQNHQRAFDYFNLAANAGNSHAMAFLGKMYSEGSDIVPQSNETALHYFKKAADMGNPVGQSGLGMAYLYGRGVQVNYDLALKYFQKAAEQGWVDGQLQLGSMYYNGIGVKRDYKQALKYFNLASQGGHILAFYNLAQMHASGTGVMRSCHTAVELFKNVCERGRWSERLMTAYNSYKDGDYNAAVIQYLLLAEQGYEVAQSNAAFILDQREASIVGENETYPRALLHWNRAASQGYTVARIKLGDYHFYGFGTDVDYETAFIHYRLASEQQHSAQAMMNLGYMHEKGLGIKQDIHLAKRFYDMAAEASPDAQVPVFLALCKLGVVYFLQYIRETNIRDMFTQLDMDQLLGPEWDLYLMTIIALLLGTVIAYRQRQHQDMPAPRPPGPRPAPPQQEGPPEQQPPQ
SEL1L F668H-FLAG (Q9UBV2, form named): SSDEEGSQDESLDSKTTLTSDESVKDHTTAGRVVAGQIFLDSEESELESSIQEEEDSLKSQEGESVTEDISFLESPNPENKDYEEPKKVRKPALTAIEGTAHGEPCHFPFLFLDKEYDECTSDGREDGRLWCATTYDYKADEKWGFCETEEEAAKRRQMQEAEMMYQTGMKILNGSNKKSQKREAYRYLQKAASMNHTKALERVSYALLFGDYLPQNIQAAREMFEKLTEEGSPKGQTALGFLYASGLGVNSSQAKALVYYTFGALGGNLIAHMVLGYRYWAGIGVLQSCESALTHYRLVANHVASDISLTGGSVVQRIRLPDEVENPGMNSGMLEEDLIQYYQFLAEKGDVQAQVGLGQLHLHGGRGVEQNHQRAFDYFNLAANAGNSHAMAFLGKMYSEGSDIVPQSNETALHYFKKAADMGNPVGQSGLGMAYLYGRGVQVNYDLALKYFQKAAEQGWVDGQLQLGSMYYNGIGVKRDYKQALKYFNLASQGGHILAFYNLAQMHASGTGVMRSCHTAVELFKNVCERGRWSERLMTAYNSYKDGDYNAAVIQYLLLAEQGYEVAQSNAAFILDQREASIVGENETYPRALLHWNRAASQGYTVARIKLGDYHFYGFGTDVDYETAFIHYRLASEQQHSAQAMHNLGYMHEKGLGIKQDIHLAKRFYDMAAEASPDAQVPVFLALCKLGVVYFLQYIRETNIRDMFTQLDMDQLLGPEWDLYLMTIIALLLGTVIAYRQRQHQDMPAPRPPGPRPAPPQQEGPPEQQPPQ

Legend:
Assay in all cases: co-IP
[1] = target: HRD1 (HMG-CoA reductase degradation 1), endogenous (human (endogenous in HEK293T)) (UniProt Q86TM6)
[2] = target: HRD1 (HMG-CoA reductase degradation 1), endogenous (human (endogenous in HEK293T)) (UniProt Q86TM6); remark: listed apart in the source
[3] = target: HRD1 (HMG-CoA reductase degradation 1), endogenous (human (endogenous in HEK293T)) (UniProt Q86TM6); remark: listed apart in the source
SEL1L S658P-FLAG (human) [4] = target: SEL1L S658P-FLAG (human) (UniProt Q9UBV2)
SEL1L F668W-FLAG (human) = SEL1L F668W-FLAG (human) (UniProt Q9UBV2)
SEL1L F668D-FLAG (human) = SEL1L F668D-FLAG (human) (UniProt Q9UBV2)
SEL1L F668S-FLAG (human) = SEL1L F668S-FLAG (human) (UniProt Q9UBV2)
[5] = target: SEL1L S658P/F668N-FLAG (human) (UniProt Q9UBV2)
SEL1L F668M-FLAG (human) = SEL1L F668M-FLAG (human) (UniProt Q9UBV2)
SEL1L F668H-FLAG (human) = SEL1L F668H-FLAG (human) (UniProt Q9UBV2)
[6] = target: SEL1L S658P/F668M-FLAG (human) (UniProt Q9UBV2)
[7] = target: SEL1L S658P/F668S-FLAG (human) (UniProt Q9UBV2)
SEL1L F668K-FLAG (human) = SEL1L F668K-FLAG (human) (UniProt Q9UBV2)
SEL1L F668A-FLAG (human) = SEL1L F668A-FLAG (human) (UniProt Q9UBV2)
SEL1L F668T-FLAG (human) = SEL1L F668T-FLAG (human) (UniProt Q9UBV2)
SEL1L F668Y-FLAG (human) = SEL1L F668Y-FLAG (human) (UniProt Q9UBV2)
[8] = target: SEL1L S658P/F668H-FLAG (human) (UniProt Q9UBV2)
SEL1L S658K-FLAG (human) = SEL1L S658K-FLAG (human) (UniProt Q9UBV2)
[9] = target: SEL1L S658P/F668Y-FLAG (human) (UniProt Q9UBV2)
SEL1L F668N-FLAG (human) = SEL1L F668N-FLAG (human) (UniProt Q9UBV2)
SEL1L-FLAG WT (human) [10] = target: SEL1L-FLAG WT (human) (UniProt Q9UBV2)
[11] = target: SEL1L S658P/F668A-FLAG (human) (UniProt Q9UBV2)
[12] = target: SEL1L S658P/F668T-FLAG (human) (UniProt Q9UBV2)
SEL1L F668C-FLAG (human) = SEL1L F668C-FLAG (human) (UniProt Q9UBV2)
[13] = target: SEL1L S658P/F668C-FLAG (human) (UniProt Q9UBV2)
[14] = target: SEL1L S658P/F668W-FLAG (human) (UniProt Q9UBV2)
SEL1L S658A-FLAG (human) = SEL1L S658A-FLAG (human) (UniProt Q9UBV2)
[15] = target: SEL1L S658P/F668K-FLAG (human) (UniProt Q9UBV2)
SEL1L S658D-FLAG (human) = SEL1L S658D-FLAG (human) (UniProt Q9UBV2)
[16] = target: SEL1L S658P/F668D-FLAG (human) (UniProt Q9UBV2)
SEL1L S658P-FLAG (human) [17] = target: SEL1L S658P-FLAG (human) (UniProt Q9UBV2); remark: listed apart in the source
SEL1L-FLAG WT (human) [18] = target: SEL1L-FLAG WT (human) (UniProt Q9UBV2); remark: listed apart in the source

Measured: binding

B1: FAM8A1 (Family with sequence similarity 8 member A1), endogenous (protein, UniProt Q9UBU6 1-413)
chain: MAEGPEEARGHPPGQDDGGGDHEPVPSLRGPPTTAVPCPRDDPQAEPQAPGRPTAPGLAAAAAADKLEPPRELRKRGEAASGSGAELQEQAGCEAPEAAAPRERPARLSAREYSRQVHEWLWQSYCGYLTWHSGLAAFPAYCSPQPSPQSFPSGGAAVPQAAAPPPPQLGYYNPFYFLSPGAAGPDPRTAAGISTPAPVAGLGPRAPHVQASVRATPVTRVGSAAPSRSPSETGRQAGREYVIPSLAHRFMAEMVDFFILFFIKATIVLSIMHLSGIKDISKFAMHYIIEEIDEDTSMEDLQKMMVVALIYRLLVCFYEIICIWGAGGATPGKFLLGLRVVTCDTSVLIAPSRVLVIPSSNVSITTSTIRALIKNFSIASFFPAFITLLFFQHNRTAYDIVAGTIVVKRNGVR
binds: [1] | [2] | [3]

B2: OS9 (Osteosarcoma amplified 9), endogenous (protein, UniProt Q13438 26-667)
chain: GGVGSLNLEELSEMRYGIEILPLPVMGGQSQSSDVVIVSSKYKQRYECRLPAGAIHFQREREEETPAYQGPGIPELLSPMRDAPCLLKTKDWWTYEFCYGRHIQQYHMEDSEIKGEVLYLGYYQSAFDWDDETAKASKQHRLKRYHSQTYGNGSKCDLNGRPREAEVRFLCDEGAGISGDYIDRVDEPLSCSYVLTIRTPRLCPHPLLRPPPSAAPQAILCHPSLQPEEYMAYVQRQADSKQYGDKIIEELQDLGPQVWSETKSGVAPQKMAGASPTKDDSKDSDFWKMLNEPEDQAPGGEEVPAEEQDPSPEAADSASGAPNDFQNNVQVKVIRSPADLIRFIEELKGGTKKGKPNIGQEQPVDDAAEVPQREPEKERGDPERQREMEEEEDEDEDEDEDEDERQLLGEFEKELEGILLPSDRDRLRSEVKAGMERELENIIQETEKELDPDGLKKESERDRAMLALTSTLNKLIKRLEEKQSPELVKKHKKKRVVPKKPPPSPQPTEEDPEHRVRVRVTKLRLGGPNQDLTVLEMKRENPQLKQIEGLVKELLEREGLTAAGKIEIKIVRPWAEGTEEGARWLTDEDTRNLKEIFFNILVPGAEEAQKERQRQKELESNYRRVWGSPGGEGTGDLDEFDF
binds: SEL1L S658P-FLAG (human) [4] | SEL1L F668W-FLAG (human) | SEL1L F668D-FLAG (human) | SEL1L F668S-FLAG (human) | [5] | SEL1L F668M-FLAG (human) | SEL1L F668H-FLAG (human) | [6] | [7] | SEL1L F668K-FLAG (human) | SEL1L F668A-FLAG (human) | SEL1L F668T-FLAG (human) | SEL1L F668Y-FLAG (human) | [8] | SEL1L S658K-FLAG (human) | [9] | SEL1L F668N-FLAG (human) | SEL1L-FLAG WT (human) [10] | [11] | [12] | SEL1L F668C-FLAG (human) | [13] | [14] | SEL1L S658A-FLAG (human) | [15] | SEL1L S658D-FLAG (human) | [16] | SEL1L S658P-FLAG (human) [17] | SEL1L-FLAG WT (human) [18]

B3: UBE2J1, endogenous (enzyme, UniProt Q9Y385 1-318)
chain: METRYNLKSPAVKRLMKEAAELKDPTDHYHAQPLEDNLFEWHFTVRGPPDSDFDGGVYHGRIVLPPEYPMKPPSIILLTANGRFEVGKKICLSISGHHPETWQPSWSIRTALLAIIGFMPTKGEGAIGSLDYTPEERRALAKKSQDFCCEGCGSAMKDVLLPLKSGSDSSQADQEAKELARQISFKAEVNSSGKTISESDLNHSFSLTDLQDDIPTTFQGATASTSYGLQNSSAASFHQPTQPVAKNTSMSPRQRRAQQQSQRRLSTSPDVIQGHQPRDNHTDHGGSAVLIVILTLALAALIFRRIYLANEYIFDFEL
binds: SEL1L S658P-FLAG (human) [4] | SEL1L-FLAG WT (human) [10]

B4: DERL2, endogenous (protein, UniProt Q9GZP9 1-239)
chain: MAYQSLRLEYLQIPPVSRAYTTACVLTTAAVQLELITPFQLYFNPELIFKHFQIWRLITNFLFFGPVGFNFLFNMIFLYRYCRMLEEGSFRGRTADFVFMFLFGGFLMTLFGLFVSLVFLGQAFTIMLVYVWSRRNPYVRMNFFGLLNFQAPFLPWVLMGFSLLLGNSIIVDLLGIAVGHIYFFLEDVFPNQPGGIRILKTPSILKAIFDTPDEDPNYNPLPEERPGGFAWGEGQRLGG
binds: SEL1L S658P-FLAG (human) [4] | SEL1L-FLAG WT (human) [10]
